Measurements reported in paper PMC6092487.
No constants are given. Whether binding was seen depends on the method and setting. In cells and extracts the contact can be indirect. A result given as binding can be weak or reduced; the word gives no strength.

Sequences of proteins named here, by UniProt entry; tags and fusion partners are left off. A change or cut given only in a name is not applied to a line headed by its entry. Residues count along the entry.
UniProt P19490, residues 19-907: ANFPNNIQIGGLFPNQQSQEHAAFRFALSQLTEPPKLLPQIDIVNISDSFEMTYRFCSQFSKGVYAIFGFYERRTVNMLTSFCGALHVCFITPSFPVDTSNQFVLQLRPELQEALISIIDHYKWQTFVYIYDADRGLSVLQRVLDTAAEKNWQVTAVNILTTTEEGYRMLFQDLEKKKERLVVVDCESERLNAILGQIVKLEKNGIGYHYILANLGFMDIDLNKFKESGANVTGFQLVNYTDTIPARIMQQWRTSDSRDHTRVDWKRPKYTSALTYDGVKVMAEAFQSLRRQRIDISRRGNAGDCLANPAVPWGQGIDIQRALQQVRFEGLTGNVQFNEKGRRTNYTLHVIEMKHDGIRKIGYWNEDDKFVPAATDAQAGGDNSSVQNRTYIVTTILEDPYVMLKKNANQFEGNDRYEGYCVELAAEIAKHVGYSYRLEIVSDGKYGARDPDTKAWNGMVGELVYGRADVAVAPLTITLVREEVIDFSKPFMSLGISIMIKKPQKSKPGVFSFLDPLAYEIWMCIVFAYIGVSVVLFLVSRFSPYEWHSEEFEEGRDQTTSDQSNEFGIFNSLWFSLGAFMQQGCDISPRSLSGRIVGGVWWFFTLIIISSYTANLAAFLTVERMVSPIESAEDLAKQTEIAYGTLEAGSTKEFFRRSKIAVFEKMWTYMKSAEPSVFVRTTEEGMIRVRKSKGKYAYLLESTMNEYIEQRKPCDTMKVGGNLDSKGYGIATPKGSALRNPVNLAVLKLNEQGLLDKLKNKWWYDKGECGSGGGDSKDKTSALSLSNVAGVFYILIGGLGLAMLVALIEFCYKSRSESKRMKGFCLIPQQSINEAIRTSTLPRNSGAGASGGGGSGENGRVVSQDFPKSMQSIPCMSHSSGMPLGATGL
UniProt Q8TCG5: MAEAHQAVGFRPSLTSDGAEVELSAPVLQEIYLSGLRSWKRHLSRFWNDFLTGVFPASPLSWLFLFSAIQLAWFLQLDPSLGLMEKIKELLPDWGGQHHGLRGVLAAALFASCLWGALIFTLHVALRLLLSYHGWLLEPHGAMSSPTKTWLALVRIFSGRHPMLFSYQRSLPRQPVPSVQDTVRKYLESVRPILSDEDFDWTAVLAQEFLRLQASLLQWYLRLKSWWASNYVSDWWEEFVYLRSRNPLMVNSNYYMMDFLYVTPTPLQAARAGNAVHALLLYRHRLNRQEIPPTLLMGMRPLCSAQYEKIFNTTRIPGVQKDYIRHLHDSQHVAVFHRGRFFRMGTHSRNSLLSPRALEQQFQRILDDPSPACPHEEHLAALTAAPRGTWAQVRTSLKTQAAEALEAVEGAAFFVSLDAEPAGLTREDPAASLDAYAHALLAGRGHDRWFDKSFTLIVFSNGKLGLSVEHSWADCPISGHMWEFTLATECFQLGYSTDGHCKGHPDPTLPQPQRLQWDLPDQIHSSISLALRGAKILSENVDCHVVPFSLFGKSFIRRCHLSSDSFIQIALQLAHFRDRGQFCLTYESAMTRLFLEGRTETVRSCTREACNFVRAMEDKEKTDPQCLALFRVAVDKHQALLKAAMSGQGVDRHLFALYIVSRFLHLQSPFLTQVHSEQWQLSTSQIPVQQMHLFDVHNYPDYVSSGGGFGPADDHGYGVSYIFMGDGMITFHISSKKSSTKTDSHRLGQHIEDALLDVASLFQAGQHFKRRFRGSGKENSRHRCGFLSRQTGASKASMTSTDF
UniProt F1LN46: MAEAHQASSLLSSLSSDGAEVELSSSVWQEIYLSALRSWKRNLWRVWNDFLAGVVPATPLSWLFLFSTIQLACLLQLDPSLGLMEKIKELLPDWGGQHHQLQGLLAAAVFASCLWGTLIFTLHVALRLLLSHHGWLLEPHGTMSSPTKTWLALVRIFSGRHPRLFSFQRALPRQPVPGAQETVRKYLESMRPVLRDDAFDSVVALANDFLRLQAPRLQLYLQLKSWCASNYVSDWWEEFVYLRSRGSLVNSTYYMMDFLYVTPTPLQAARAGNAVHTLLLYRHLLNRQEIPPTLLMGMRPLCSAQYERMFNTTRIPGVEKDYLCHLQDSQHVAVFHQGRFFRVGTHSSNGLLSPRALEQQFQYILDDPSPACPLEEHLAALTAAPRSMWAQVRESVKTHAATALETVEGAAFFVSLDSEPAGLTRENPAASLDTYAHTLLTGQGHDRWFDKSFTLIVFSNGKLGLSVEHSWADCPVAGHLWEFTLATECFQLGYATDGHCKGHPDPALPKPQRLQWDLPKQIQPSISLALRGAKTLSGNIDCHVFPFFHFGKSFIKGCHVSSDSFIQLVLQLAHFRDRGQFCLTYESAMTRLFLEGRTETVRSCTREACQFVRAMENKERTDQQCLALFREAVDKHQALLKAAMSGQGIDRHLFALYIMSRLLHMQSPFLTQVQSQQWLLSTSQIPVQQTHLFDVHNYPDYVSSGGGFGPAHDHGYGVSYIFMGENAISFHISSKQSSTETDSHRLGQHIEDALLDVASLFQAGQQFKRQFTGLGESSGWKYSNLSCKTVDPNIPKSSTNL

Legend:
Assay in all cases: co-IP; tsA201 cells co-transfected with GluA1 and CPT1C-GFP (or mutant), 48 h; lysis in 1% Triton TX-100, 50 mM Tris-HCl pH 8, 150 mM NaCl, 4°C; IP overnight with anti-GluA1-NT or anti-GFP, Protein-A sepharose; Western blot; in one experiment cells were treated 24 h with 50 μM Palmostatin B or 0.1% DMSO (interaction not altered)
[1] = biological target: GluA1 subunit of AMPARs (recombinant, tsA201 cells) (UniProt P19490)
CPT1C(H470A)-GFP = CPT1C(H470A)-GFP (UniProt Q8TCG5)
CPT1C-EGFP = CPT1C-EGFP (UniProt F1LN46)

binding [1]	binding (CPT1C(H470A)-GFP)	binding (CPT1C-EGFP)	Substance
binds			CPT1C(H470A)-GFP (from UniProt Q8TCG5) (enzyme)
	binds	binds	GluA1 subunit of AMPARs (recombinant, tsA201 cells) (from UniProt P19490 19-907) (receptor)
binds			CPT1C-EGFP (from UniProt F1LN46) (enzyme)
